Measured values taken from PMC7181604, “Arabidopsis FHY3 and FAR1 integrate light and strigolactone signaling to regulate branching”.
No constants are given. Whether binding was seen depends on the method and setting. Binding can be weak; no strength is given. Sequences can lack the tags named with a protein.

Tests used:
[1] = molecular target: T1, SPL15 (yeast two-hybrid fusion) (Arabidopsis thaliana) (UniProt Q9M2Q6); assay: two-hybrid; LexA/AD system in yeast strain EGY48 plus H18; SD/-Ura/-Trp/-His, then raffinose, galactose and X-gal for blue color development
T1 sequence: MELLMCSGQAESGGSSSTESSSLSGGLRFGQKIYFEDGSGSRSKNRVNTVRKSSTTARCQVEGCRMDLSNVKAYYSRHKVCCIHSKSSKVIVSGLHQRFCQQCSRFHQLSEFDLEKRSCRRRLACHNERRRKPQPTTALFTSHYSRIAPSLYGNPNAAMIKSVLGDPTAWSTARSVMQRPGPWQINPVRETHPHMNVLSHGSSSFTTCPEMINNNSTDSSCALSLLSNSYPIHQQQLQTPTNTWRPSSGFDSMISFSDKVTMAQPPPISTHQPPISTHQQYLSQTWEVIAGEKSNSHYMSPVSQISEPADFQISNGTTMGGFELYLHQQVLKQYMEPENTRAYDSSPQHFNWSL

[2] = molecular target: T2, SPL9 (yeast two-hybrid fusion) (Arabidopsis thaliana) (UniProt Q700W2); assay: as above
T2 sequence: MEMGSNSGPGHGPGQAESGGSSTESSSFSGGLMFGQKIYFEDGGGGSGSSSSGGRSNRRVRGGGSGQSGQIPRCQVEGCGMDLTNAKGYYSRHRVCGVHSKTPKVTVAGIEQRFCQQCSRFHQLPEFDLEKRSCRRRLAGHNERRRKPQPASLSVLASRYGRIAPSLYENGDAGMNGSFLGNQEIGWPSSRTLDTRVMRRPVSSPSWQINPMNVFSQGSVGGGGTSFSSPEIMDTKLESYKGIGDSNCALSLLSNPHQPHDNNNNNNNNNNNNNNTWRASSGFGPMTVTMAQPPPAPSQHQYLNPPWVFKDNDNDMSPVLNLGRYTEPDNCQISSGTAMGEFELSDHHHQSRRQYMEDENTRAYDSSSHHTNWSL

| binding [1] | binding [2] | Substance |
| --- | --- | --- |
| no binding | no binding | FHY3-III domain (yeast two-hybrid fusion) (Arabidopsis thaliana) (domain or fragment) |
| binds | binds | FHY3-II domain (yeast two-hybrid fusion) (Arabidopsis thaliana) (domain or fragment) |
